Patent publication US8575100B2 (Mallinckrodt LLC, priority 2001, dated 2013)

Legend:
[1] = general procedure: Fmoc solid-phase peptide synthesis; DHP-HM resin; TBTU/HOBt/DIPEA (solution couplings); settings: whole synthesis
[2] = general procedure: Fmoc solid-phase peptide synthesis; DHP-HM resin (0.94 mmol/g) for TOC; TCP resin ([…]) for TATE; TBTU/HOBt/DIPEA (solution couplings); settings: late stage modification step

Substance	crude mass [1] [mg]	crude yield ([1]; scale of the general procedure 1.000 g resin) [%]	step yield [2] [%]
Fmoc-Lys^0-Dphe^1-Cys^2-Tyr^3-DTrp^4-Lys (Dde) 5-Thr^6-Cys^7-Thr-ol^8	828	83	–
Lys0(Nε-Boc-His (Boc))-TOC(Dde)	–	–	86
